Results: the supplement of paper PMC10849652
The other results are listed elsewhere or left out.

Amino acid sequences for entries named in this document (tags omitted). A change or cut given only in a name is not applied to a line headed by its entry.
UniProt Q9Y333: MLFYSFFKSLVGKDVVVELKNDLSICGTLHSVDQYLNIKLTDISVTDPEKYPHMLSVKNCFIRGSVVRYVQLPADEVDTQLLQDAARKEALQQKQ
UniProt O95214: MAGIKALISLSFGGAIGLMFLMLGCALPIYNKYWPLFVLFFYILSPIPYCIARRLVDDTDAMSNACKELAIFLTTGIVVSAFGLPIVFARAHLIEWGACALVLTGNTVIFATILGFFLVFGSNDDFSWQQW
UniProt Q6NSJ5: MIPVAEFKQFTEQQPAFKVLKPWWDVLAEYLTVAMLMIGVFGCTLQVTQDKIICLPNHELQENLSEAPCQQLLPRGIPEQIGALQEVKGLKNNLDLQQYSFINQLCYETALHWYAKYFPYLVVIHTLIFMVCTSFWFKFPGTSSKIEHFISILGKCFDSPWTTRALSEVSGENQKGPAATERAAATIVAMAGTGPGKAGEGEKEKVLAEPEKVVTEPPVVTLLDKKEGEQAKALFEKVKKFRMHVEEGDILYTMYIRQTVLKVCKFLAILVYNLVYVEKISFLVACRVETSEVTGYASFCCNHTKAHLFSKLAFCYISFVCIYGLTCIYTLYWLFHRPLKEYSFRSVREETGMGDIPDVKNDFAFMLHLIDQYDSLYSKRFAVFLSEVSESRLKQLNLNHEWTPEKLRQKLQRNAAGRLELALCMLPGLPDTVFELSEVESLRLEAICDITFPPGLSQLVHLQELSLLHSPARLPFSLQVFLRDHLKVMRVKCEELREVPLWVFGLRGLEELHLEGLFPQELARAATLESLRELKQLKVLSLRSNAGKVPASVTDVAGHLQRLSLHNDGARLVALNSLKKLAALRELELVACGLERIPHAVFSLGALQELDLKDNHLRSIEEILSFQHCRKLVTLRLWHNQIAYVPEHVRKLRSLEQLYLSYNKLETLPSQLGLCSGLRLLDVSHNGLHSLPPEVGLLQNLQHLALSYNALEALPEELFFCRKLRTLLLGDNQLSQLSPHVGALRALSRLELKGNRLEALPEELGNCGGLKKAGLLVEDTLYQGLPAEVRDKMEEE
UniProt Q9H089: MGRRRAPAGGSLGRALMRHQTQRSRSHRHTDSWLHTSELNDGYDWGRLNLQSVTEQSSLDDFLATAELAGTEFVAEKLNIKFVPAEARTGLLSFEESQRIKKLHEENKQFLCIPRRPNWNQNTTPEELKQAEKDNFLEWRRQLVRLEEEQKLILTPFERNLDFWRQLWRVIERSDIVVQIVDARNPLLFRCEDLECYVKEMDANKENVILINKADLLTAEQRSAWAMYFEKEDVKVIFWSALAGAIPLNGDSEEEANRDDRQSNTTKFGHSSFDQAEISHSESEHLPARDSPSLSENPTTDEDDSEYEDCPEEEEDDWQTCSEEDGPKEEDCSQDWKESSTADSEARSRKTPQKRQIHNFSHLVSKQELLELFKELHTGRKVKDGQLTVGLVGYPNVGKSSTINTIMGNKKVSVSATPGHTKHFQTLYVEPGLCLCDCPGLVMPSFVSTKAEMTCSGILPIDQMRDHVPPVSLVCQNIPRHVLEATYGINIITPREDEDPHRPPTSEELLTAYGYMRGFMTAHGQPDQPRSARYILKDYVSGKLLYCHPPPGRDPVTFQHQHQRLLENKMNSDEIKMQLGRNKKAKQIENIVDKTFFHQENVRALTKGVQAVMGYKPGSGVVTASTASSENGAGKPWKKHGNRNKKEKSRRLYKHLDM
UniProt Q8N448: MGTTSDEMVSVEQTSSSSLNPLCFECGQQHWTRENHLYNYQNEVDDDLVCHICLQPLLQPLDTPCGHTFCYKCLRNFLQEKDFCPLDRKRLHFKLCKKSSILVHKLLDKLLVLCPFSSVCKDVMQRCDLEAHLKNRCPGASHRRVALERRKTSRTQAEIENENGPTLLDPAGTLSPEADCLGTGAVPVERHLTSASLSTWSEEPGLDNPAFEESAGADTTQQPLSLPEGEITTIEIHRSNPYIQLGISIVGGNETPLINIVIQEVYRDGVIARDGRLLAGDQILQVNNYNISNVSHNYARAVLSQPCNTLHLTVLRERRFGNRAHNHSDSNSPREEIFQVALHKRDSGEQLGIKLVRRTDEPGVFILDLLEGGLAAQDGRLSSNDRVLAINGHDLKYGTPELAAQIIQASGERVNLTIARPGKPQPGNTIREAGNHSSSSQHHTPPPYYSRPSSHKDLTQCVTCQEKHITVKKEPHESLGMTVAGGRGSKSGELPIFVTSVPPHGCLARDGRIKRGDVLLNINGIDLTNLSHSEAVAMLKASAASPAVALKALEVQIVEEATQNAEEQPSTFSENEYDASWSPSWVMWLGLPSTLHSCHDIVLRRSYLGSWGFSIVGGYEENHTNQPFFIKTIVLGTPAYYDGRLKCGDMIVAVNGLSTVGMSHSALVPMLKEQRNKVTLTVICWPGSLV
UniProt Q5SW96: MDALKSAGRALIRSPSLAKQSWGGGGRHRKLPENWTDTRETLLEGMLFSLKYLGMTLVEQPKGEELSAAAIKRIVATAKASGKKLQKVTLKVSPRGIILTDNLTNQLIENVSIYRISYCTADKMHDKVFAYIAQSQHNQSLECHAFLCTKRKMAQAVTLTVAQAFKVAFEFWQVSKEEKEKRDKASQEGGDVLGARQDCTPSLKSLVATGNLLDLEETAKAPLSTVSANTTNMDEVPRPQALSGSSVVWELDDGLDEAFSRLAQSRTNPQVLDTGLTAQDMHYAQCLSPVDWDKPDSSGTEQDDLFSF
UniProt Q9P244: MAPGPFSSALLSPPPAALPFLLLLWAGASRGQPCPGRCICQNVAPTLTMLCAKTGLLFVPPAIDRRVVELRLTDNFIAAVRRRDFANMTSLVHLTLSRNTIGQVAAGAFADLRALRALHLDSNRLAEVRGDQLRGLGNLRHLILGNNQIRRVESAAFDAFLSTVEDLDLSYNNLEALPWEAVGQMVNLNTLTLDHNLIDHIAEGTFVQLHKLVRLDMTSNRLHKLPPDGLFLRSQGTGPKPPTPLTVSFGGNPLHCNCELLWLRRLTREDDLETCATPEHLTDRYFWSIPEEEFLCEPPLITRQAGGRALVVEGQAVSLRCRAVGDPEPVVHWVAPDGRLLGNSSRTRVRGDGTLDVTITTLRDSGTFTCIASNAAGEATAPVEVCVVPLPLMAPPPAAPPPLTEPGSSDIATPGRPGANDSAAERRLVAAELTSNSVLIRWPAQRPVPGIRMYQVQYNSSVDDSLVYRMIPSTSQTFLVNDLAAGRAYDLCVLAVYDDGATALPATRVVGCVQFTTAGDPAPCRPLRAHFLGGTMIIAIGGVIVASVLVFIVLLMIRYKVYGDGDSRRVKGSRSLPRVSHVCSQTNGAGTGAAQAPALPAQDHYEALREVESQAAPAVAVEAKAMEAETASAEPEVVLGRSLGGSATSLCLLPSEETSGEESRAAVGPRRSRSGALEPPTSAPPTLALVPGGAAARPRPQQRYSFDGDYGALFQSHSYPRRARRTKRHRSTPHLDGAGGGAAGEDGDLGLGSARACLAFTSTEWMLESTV
UniProt P83369: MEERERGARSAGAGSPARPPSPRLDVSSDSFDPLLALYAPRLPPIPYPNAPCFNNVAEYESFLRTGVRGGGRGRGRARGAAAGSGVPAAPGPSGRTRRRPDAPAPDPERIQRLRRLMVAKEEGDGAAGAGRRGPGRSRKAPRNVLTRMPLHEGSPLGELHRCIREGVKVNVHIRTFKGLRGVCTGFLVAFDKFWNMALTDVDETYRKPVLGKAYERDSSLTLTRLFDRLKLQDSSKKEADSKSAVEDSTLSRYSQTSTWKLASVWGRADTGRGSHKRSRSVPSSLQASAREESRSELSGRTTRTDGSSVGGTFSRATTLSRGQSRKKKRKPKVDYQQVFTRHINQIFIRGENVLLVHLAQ
UniProt Q9UFC0: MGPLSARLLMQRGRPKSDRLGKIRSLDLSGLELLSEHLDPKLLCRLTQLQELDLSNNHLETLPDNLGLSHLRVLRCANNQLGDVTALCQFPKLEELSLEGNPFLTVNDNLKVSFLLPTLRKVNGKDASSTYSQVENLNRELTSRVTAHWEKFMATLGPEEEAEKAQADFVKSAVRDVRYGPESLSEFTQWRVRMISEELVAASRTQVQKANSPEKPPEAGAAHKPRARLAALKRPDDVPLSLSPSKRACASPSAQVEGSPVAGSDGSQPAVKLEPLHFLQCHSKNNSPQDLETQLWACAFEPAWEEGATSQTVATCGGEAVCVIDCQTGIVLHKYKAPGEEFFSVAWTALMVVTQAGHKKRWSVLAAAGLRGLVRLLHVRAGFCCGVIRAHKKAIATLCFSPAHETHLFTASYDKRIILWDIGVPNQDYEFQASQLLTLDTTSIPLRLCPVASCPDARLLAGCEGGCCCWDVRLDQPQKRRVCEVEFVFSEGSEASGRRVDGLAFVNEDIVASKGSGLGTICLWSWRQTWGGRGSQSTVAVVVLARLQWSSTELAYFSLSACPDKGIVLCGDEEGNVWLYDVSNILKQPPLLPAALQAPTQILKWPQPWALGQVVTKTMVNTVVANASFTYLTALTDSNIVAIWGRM
UniProt O94898: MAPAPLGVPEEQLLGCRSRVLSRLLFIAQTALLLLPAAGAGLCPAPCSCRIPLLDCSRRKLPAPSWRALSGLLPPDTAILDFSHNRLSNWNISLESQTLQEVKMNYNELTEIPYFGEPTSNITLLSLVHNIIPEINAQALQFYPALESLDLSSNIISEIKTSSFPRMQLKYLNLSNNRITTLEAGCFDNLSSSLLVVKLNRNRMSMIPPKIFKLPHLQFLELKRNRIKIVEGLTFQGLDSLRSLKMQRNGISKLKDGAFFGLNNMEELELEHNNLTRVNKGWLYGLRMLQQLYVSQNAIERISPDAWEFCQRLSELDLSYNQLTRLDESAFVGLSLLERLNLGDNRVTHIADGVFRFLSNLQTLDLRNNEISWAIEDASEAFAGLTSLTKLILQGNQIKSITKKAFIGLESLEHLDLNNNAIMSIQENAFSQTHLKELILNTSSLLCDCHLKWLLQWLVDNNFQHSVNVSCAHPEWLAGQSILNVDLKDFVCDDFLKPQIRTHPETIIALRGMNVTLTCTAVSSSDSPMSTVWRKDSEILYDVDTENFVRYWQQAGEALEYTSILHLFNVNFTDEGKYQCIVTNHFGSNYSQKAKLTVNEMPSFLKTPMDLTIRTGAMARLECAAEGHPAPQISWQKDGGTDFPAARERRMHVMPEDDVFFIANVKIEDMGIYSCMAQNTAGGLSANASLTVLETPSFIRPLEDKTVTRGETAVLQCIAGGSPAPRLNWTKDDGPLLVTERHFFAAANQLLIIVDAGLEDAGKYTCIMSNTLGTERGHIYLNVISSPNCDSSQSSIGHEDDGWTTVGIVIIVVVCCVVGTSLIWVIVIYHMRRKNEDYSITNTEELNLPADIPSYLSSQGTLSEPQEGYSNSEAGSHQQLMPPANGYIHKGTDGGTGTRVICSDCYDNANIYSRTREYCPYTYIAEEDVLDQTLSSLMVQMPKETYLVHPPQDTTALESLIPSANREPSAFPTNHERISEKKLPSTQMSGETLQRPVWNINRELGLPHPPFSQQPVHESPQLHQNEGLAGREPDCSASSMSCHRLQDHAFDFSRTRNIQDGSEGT
UniProt Q6P1M3: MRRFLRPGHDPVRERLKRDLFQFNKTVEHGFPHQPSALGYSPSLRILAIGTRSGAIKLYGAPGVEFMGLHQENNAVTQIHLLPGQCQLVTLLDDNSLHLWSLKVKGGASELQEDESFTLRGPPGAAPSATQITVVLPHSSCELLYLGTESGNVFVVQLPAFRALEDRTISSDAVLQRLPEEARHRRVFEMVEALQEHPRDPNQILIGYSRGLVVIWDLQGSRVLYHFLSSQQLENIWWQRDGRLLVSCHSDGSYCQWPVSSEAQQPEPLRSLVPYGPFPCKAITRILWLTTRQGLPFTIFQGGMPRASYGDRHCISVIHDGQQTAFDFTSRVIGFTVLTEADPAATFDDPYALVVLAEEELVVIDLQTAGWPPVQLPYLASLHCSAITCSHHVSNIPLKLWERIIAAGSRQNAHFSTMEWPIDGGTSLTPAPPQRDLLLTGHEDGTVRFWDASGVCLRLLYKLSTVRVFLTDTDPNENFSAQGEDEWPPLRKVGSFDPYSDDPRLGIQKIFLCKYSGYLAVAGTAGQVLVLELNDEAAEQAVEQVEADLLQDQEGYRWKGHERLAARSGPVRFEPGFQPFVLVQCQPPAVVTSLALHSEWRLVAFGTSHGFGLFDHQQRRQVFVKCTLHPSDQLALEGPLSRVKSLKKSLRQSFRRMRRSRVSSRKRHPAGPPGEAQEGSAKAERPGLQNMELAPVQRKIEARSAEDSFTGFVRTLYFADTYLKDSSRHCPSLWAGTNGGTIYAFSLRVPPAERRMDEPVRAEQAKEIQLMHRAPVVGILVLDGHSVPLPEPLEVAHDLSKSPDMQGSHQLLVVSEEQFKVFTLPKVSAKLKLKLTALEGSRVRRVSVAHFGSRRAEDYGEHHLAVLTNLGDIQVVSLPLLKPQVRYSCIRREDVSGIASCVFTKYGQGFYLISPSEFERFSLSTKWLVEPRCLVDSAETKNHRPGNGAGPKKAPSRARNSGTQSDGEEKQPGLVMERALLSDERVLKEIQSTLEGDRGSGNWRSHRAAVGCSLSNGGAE

Assays:
Assay in all cases: log2 fold change, soluble protein after heating vs DMSO (PISA); higher = thermal stabilisation; K562 lysate, 10 uM; active = over 0.2 and 3.5 SD of the protein, either way, in both replicates (recomputed)
vemurafenib = compound: CCCS(=O)(=O)Nc1ccc(F)c(C(=O)c2c[nH]c3ncc(-c4ccc(Cl)cc4)cc23)c1F [vemurafenib]
Procedure, shortened: (§1)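 Thermal stability, expressed as log-two fold change relative to solvent controls, is given from duplicates. Crude K562 extract in PBS pH 7.4 with 1 mM MgCl2, at 1 mg/mL protein, was treated with 10 μM compound for 30 min and heated in aliquots for 3 min across 48°C-58°C. After pooling, adjustment to 0.5% NP-40 at 4°C and centrifugation at 21,000xg for 90 min, supernatant protein was measured by TMTpro 16plex LC-MS/MS with channel sums equalised.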

[1] = compound: CCCS(=O)(=O)Nc1ccc(F)c(C(=O)c2c[nH]c3ncc(Cl)cc23)c1F
Procedure, shortened: as §1

[2] = compound: CC[C@@H]1C(=O)N(C)c2cnc(Nc3ccc(C(=O)NC4CCN(C)CC4)cc3OC)nc2N1C1CCCC1
Procedure, shortened: as §1

volasertib = compound: CC[C@@H]1C(=O)N(C)c2cnc(Nc3ccc(C(=O)N[C@H]4CC[C@H](N5CCN(CC6CC6)CC5)CC4)cc3OC)nc2N1C(C)C [volasertib]
Procedure, shortened: as §1

[3] = compound: CCn1cc(-c2ccnc3[nH]c(-c4cccc(CN(C)C)c4)cc23)c(-c2ccc(NC(=O)N(C)C)cc2)n1
Procedure, shortened: as §1

[4] = compound: CN1CCC(CNc2ccc3ncc(-c4cccc(OC(F)(F)F)c4)n3n2)CC1
Procedure, shortened: as §1

saracatinib = compound: CN1CCN(CCOc2cc(OC3CCOCC3)c3c(Nc4c(Cl)ccc5c4OCO5)ncnc3c2)CC1 [saracatinib]
Procedure, shortened: as §1

sotrastaurin = compound: CN1CCN(c2nc(C3=C(c4c[nH]c5ccccc45)C(=O)NC3=O)c3ccccc3n2)CC1 [sotrastaurin]
Procedure, shortened: as §1

alvocidib = compound: CN1CC[C@H](c2c(O)cc(O)c3c(=O)cc(-c4ccccc4Cl)oc23)[C@H](O)C1 [alvocidib]
Procedure, shortened: as §1

[5] = compound: CNC(=O)C1=CC=CC=C1NC2=NC(=NC=C2Cl)NC3=C(C=C(C=C3)N4CCOCC4)OC
Procedure, shortened: as §1

defactinib = compound: CNC(=O)c1ccc(Nc2ncc(C(F)(F)F)c(NCc3nccnc3N(C)S(C)(=O)=O)n2)cc1 [defactinib]
Procedure, shortened: as §1

[6] = compound: CNc1nc(-c2ccc3c(N)n[nH]c3c2)cc(N2C[C@@H](C(=O)NC3CCCCC3)CC[C@H]2C)n1
Procedure, shortened: as §1

encorafenib = compound: COC(=O)N[C@@H](C)CNc1nccc(-c2cn(C(C)C)nc2-c2cc(Cl)cc(NS(C)(=O)=O)c2F)n1 [encorafenib]
Procedure, shortened: as §1

[7] = compound: COC(=O)[C@H](CCSC)NC(=O)C1=C(C=C(C=C1)NC[C@H](CS)N)C2=CC=CC=C2
Procedure, shortened: as §1

alisertib = compound: COc1cc(Nc2ncc3c(n2)-c2ccc(Cl)cc2C(c2c(F)cccc2OC)=NC3)ccc1C(=O)O [alisertib]
Procedure, shortened: as §1

[8] = compound: COc1cc2nc(-c3cc(F)ccc3O)nc(N[C@@H]3CNC[C@H]3C(C)(C)O)c2cc1OC
Procedure, shortened: as §1

gefitinib = compound: COc1cc2ncnc(Nc3ccc(F)c(Cl)c3)c2cc1OCCCN1CCOCC1 [gefitinib]
Procedure, shortened: as §1

barasertib = compound: CCN(CCCOc1ccc2c(Nc3cc(CC(=O)Nc4cccc(F)c4)[nH]n3)ncnc2c1)CCOP(=O)(O)O [barasertib]
Procedure, shortened: as §1

[9] = compound: CCn1c(C(=O)N(C2CC2)C2CC2)cc2c3c(ncn3C)c(Nc3cc(C)n(C)n3)nc21
Procedure, shortened: as §1

Tubastatin A = compound: CN1CCc2c(c3ccccc3n2Cc2ccc(C(=O)NO)cc2)C1 [Tubastatin A]
Procedure, shortened: as §1

Measured: log2 fold change

LGALS3BP (UniProt Q08380)
active: [6] -0.571
inactive: vemurafenib -0.196 | [1] 0.01 | [2] 0.036 | volasertib 0.044 | [3] 0.168 | [4] 0 | saracatinib 0.219 | sotrastaurin -0.067 | alvocidib -0.187 | [5] -0.234 | defactinib -0.133 | encorafenib 0.023 | [7] 0.082 | alisertib -0.074 | [8] 0.092 | gefitinib 0.019

LGALS8 isoform 2 (UniProt O00214)
inactive: vemurafenib -0.02 | [1] 0.036 | barasertib 0.018 | [2] 0.038 | volasertib -0.001 | [9] -0.038 | [3] 0.018 | [4] 0.017 | saracatinib -0.028 | sotrastaurin 0.005 | alvocidib 0.005 | Tubastatin A 0.029 | [5] 0.013 | defactinib -0.018 | [6] -0.039 | encorafenib 0.046 | [7] -0.037 | alisertib -0.009 | [8] 0.051 | gefitinib -0.015

LRRC9 (UniProt Q6ZRR7)
inactive: vemurafenib -0.011 | [2] -0.022 | [3] -0.25 | [4] 0.131 | sotrastaurin 0.01 | alvocidib 0.911 | defactinib -0.056 | encorafenib -0.022 | [7] 0.003

LSM2 (UniProt Q9Y333)
inactive: vemurafenib 0.002 | [1] -0.014 | barasertib 0.008 | [2] -0.016 | volasertib 0.041 | [9] -0.048 | [3] -0.053 | [4] 0.068 | saracatinib -0.006 | sotrastaurin -0.002 | alvocidib 0.004 | Tubastatin A 0.05 | [5] 0.001 | defactinib -0.056 | [6] 0.014 | encorafenib -0.012 | [7] 0.003 | alisertib 0.003 | [8] 0.025 | gefitinib -0.028

LSM3 (UniProt P62310)
inactive: vemurafenib 0.015 | [1] -0.015 | barasertib 0.046 | [2] 0.053 | volasertib 0.026 | [9] -0.034 | [3] -0.136 | [4] -0.006 | saracatinib -0.015 | sotrastaurin 0.002 | alvocidib 0 | Tubastatin A 0.04 | [5] 0.03 | defactinib 0.045 | [6] 0.011 | encorafenib -0.039 | [7] -0.014 | alisertib 0.028 | [8] -0.011 | gefitinib -0.007

LARS2 (UniProt Q15031)
inactive: vemurafenib -0.015 | [1] 0.007 | barasertib 0.077 | [2] -0.103 | volasertib -0.081 | [9] 0.061 | [3] 0.024 | [4] -0.073 | saracatinib 0.029 | sotrastaurin 0.072 | alvocidib 0.021 | Tubastatin A -0.06 | [5] -0.047 | defactinib 0.013 | [6] -0.088 | encorafenib 0.038 | [7] -0.115 | alisertib 0.051 | [8] 0.007 | gefitinib 0.012

Reprinted from the entries so far (two entries):
LSM3 (UniProt P62310)
inactive: vemurafenib 0.015 | [1] -0.015 | barasertib 0.046 | [2] 0.053 | volasertib 0.026 | [9] -0.034 | [3] -0.136 | [4] -0.006 | saracatinib -0.015 | sotrastaurin 0.002 | alvocidib 0 | Tubastatin A 0.04 | [5] 0.03 | defactinib 0.045 | [6] 0.011 | encorafenib -0.039 | [7] -0.014 | alisertib 0.028 | [8] -0.011 | gefitinib -0.007

LARS2 (UniProt Q15031)
inactive: vemurafenib -0.015 | [1] 0.007 | barasertib 0.077 | [2] -0.103 | volasertib -0.081 | [9] 0.061 | [3] 0.024 | [4] -0.073 | saracatinib 0.029 | sotrastaurin 0.072 | alvocidib 0.021 | Tubastatin A -0.06 | [5] -0.047 | defactinib 0.013 | [6] -0.088 | encorafenib 0.038 | [7] -0.115 | alisertib 0.051 | [8] 0.007 | gefitinib 0.012

Additional records follow.

LINGO1 (UniProt Q96FE5)
inactive: vemurafenib 0.002 | [1] -0.126 | barasertib 0.014 | [2] -0.121 | volasertib -0.023 | [9] -0.007 | [3] -0.061 | [4] -0.003 | saracatinib 0.041 | alvocidib -0.025 | Tubastatin A 0.041 | [5] -0.05 | defactinib -0.094 | [6] 0.05 | encorafenib -0.084 | [7] 0.078 | [8] 0.029

LRRC42 (UniProt Q9Y546)
inactive: vemurafenib 0.016 | [2] -0.219 | [9] 0.001 | [3] 0.023 | [4] -0.151 | saracatinib 0.115 | sotrastaurin -0.082 | alvocidib 0.028 | Tubastatin A -0.005 | [5] 0.165 | defactinib 0.024 | [6] -0.077 | encorafenib 0.112 | [7] -0.289 | alisertib -0.042 | gefitinib 0.014

LEPROTL1 isoform 2 (UniProt O95214)
inactive: vemurafenib -0.052 | [1] -0.069 | barasertib 0.073 | volasertib 0.132 | [9] 0.17 | saracatinib 0.329 | Tubastatin A -0.363 | [5] 0.029 | defactinib 0.127 | [6] -0.246 | [8] -0.139

LCN2 (UniProt P80188)
inactive: vemurafenib 0.13 | [1] -0.223 | volasertib -0.102 | [5] 0.071 | defactinib -0.661 | alisertib -0.104 | [8] 0.061 | gefitinib -0.039

LRRC8E (UniProt Q6NSJ5)
inactive: vemurafenib 0.045 | [2] 0.116 | [9] 0.026 | [3] -0.103 | [4] -0.094 | sotrastaurin -0.007 | alvocidib 0.075 | Tubastatin A -0.032 | defactinib -0.085 | encorafenib 0.192 | [7] -0.113

LRIF1 (UniProt Q5T3J3)
inactive: vemurafenib 0.213 | [1] -0.005 | [2] -0.009 | volasertib 0.042 | [9] 0.006 | [3] 0.105 | [4] 0.044 | saracatinib 0.046 | sotrastaurin 0.001 | alvocidib -0.018 | Tubastatin A 0.075 | [5] -0.035 | defactinib 0.002 | [6] 0.126 | encorafenib 0.049 | [7] 0.052 | alisertib -0.03 | [8] 0.234 | gefitinib -0.039

LSG1 (UniProt Q9H089)
active: [7] 0.303
inactive: vemurafenib -0.056 | [1] 0.046 | barasertib 0.037 | [2] -0.084 | volasertib -0.065 | [9] -0.01 | [3] -0.124 | [4] 0.064 | saracatinib 0.043 | sotrastaurin 0.024 | alvocidib -0.079 | Tubastatin A -0.016 | [5] -0.046 | defactinib 0.003 | [6] -0.077 | encorafenib 0.046 | alisertib -0.017 | [8] -0.028 | gefitinib -0.059

LNX2 (UniProt Q8N448)
inactive: vemurafenib -0.061 | barasertib -0.153 | [2] 0.052 | [3] -0.04 | [4] 0.131 | saracatinib -0.177 | alvocidib 0.053 | [5] 0.047 | defactinib -0.053 | [6] 0.156 | encorafenib -0.006 | [7] 0.323 | alisertib 0.022 | gefitinib -0.007

LDLRAP1 (UniProt Q5SW96)
inactive: vemurafenib 0.04 | barasertib 0.131 | [2] 0.083 | [9] -0.025 | [3] -0.069 | [4] -0.054 | saracatinib 0 | sotrastaurin 0.042 | alvocidib 0.049 | Tubastatin A 0.015 | [5] 0.123 | defactinib 0.069 | [6] 0.003 | encorafenib -0.016 | [7] -0.013 | alisertib 0 | gefitinib 0.03

LRFN1 (UniProt Q9P244)
inactive: vemurafenib 0.035 | [1] 0.288 | barasertib -0.03 | [2] -0.115 | volasertib -0.18 | [9] 0.018 | saracatinib 0.013 | sotrastaurin 0.057 | Tubastatin A 0.055 | [5] -0.373 | defactinib 0.072 | [6] -0.162 | encorafenib 0.073 | [7] -0.048 | alisertib 0.035 | [8] 0.057 | gefitinib -0.134

LSM14B isoform 2 (UniProt Q9BX40)
inactive: vemurafenib 0.07 | [1] -0.017 | barasertib -0.005 | [2] -0.04 | volasertib -0.015 | [9] 0.014 | [3] -0.073 | [4] 0.037 | saracatinib 0.014 | sotrastaurin -0.064 | alvocidib 0.011 | Tubastatin A -0.061 | [5] 0.036 | defactinib -0.033 | [6] -0.005 | encorafenib 0.049 | [7] 0.139 | alisertib 0.043 | [8] -0.011 | gefitinib 0.024

LSM11 (UniProt P83369)
inactive: vemurafenib 0.077 | [2] 0.06 | [3] 0.115 | [4] 0.212 | saracatinib 0.076 | sotrastaurin -0.085 | alvocidib 0.134 | [5] -0.15 | defactinib -0.119 | [6] 0.009 | encorafenib 0.082 | [7] 0.041

LRWD1 (UniProt Q9UFC0)
inactive: vemurafenib 0.009 | [1] -0.013 | barasertib -0.021 | [2] -0.016 | volasertib -0.017 | [9] 0.023 | [3] -0.003 | [4] 0.036 | saracatinib 0.025 | sotrastaurin 0.03 | alvocidib 0.027 | Tubastatin A -0.2 | [5] -0.049 | defactinib 0.059 | [6] -0.051 | encorafenib 0.01 | [7] 0.11 | alisertib -0.001 | [8] 0.017 | gefitinib -0.024

LRIG2 (UniProt O94898)
inactive: vemurafenib 0.004 | [1] -0.001 | [2] 0.109 | volasertib -0.059 | [9] 0 | [3] -0.109 | [4] -0.014 | saracatinib 0.031 | sotrastaurin -0.011 | alvocidib -0.029 | Tubastatin A -0.076 | [5] -0.002 | defactinib 0.002 | [6] 0.026 | encorafenib 0.058 | [7] -0.05 | alisertib 0.173 | [8] 0.033 | gefitinib 0.076

LLGL2 (UniProt Q6P1M3)
inactive: vemurafenib 0.03 | [1] 0.066 | [2] 0 | volasertib -0.016 | saracatinib 0.144 | sotrastaurin 0.059 | [5] 0.256 | defactinib -0.076 | [6] -0.086 | encorafenib 0.11 | [7] -0.143 | alisertib -0.045 | [8] -0.114 | gefitinib -0.098
